According to patent publication US9648880B2, “Antifungal agents and uses thereof” (University of Massachusetts, priority 2012, dated 2017):
At least one structure is not confirmed: it was looked up by name or label, or the drawing left a doubt.

Amino acid sequences for entries named in this document (tags omitted). A change or cut given only in a name is not applied to a line headed by its entry.
UniProt Q03330: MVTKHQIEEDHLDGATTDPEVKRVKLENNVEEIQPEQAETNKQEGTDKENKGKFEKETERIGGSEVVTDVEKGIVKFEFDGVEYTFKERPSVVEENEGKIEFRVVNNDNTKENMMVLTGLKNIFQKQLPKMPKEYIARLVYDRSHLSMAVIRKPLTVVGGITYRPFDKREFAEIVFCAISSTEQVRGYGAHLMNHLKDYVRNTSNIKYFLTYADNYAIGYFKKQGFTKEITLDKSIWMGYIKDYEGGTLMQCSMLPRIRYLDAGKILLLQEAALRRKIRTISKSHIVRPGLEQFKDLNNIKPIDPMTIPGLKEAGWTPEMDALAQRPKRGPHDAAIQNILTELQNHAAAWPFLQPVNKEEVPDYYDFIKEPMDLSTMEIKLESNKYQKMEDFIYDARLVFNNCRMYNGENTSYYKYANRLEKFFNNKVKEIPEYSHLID

Columns and labels:
[1] = target: T1, Rtt109-Vps75 (Saccharomyces cerevisiae, UniProt Q07794); test: HAT-ThioGlo1 time course assay, Rtt109-Vps75; type: biochemical, S. cerevisiae
T1 construct: 6xHis (on one of the two proteins of the complex); made in house; host or cells: bacteria
T1 sequence (Q07794 1-436): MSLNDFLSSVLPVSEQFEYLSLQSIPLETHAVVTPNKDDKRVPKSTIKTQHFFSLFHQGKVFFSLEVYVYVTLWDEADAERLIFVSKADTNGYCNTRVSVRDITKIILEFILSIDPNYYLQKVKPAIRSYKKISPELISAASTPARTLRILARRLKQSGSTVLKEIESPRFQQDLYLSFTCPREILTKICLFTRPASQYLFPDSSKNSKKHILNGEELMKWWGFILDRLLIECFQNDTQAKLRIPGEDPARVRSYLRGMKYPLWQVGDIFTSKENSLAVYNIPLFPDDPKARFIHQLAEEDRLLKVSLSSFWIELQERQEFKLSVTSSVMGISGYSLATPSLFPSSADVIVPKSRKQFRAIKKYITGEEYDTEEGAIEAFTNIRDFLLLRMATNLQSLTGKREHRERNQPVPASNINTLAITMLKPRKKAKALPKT
T1 sequence (P53853 1-264 partner): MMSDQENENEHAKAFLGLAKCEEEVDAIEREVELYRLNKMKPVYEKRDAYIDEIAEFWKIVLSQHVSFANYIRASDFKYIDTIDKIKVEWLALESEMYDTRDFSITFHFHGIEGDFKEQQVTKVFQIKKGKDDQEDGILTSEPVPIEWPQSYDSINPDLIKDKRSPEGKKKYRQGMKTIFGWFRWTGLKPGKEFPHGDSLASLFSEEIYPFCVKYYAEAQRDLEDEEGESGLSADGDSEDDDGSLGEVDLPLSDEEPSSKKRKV

[2] = target: T2, Gcn5 (Saccharomyces cerevisiae, UniProt Q03330); test: HAT-ThioGlo1 time course assay, Gcn5; type: biochemical, S. cerevisiae
T2 construct: 6xHis (N); made in house; host or cells: BL21 E. coli

CCCC1(c2ccccc2)NC(=O)N(CC(=O)N(C)Cc2c(F)cccc2Cl)C1=O (centres unmarked) [KB7, N-[(2-chloro-6-fluorophenyl)methyl]-2-(2,5-dioxo-4-phenyl-4-propylimidazolidin-1-yl)-N-methylacetamide]
preference for inhibition of Rtt109 over p300 and Gcn5 [1]: greater than two order of magnitude preference
inhibition of HAT activity [2]: did not significantly inhibit
